Assay results taken from PubChem BioAssay AID485314 (National Center for Advancing Translational Sciences (NCATS), 2010).
Several values for one entry are separate records, joined by “and”; a condition that tells them apart may be missing. Equal entries are not always repeated. Out of some 340,000 compounds screened, about 4,500 (1.3%) were called active. The inconclusive results got no clear call from the source; some entries with a clear call stand among them for comparison. The call rests on the fitted dose curve; in most records, active means well fitted inhibition curve with a large enough effect; inconclusive means small, poorly fitted or top-dose-only effect, or another doubt; inactive means no such curve, though single readings can be large or run the other way. Potencies beside an inconclusive call are fits to weak or partial responses and may not hold up.

molecular target: DNA polymerase beta (Homo sapiens) (UniProt P06746); assay: qHTS Assay for Inhibitors of DNA Polymerase Beta; conditions: Pol beta primer extension/strand displacement, fluorescence kinetic; activity change, negative = inhibition: at 114 µM (top of the series)
Method in brief: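 Curves were derived by four-parameter Hill fits of normalized qHTS data. The kinetic fluorescent primer-extension read was taken at 0 and 10 min after 50 nM substrate, following a 15 min room-temperature preincubation of 10 nM enzyme with compounds.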
On the % scale 0 is the no-effect control and ±100 the full control effect; potency means the concentration at half of the fitted maximal effect.

Row | Compound | Potency | activity change, negative = inhibition
1 | CCn1c2ccccc2c2cc(/C=N/NC(=O)c3ccncc3)ccc21 | active: 15.8 µM | 
2 | CC(NS(=O)(=O)c1ccccc1)C(=O)NCc1ccco1 (stereo not given) | inconclusive: 20 µM [inhibitor, full curve, poor fit] | 
3 | Cc1c(Cl)cn2c(=O)cc(CN3CCN(c4ccc(F)cc4)CC3)nc2c1Cl | inconclusive: 44.7 µM [inhibitor, partial curve] | 
4 | Cc1ccc(C(=O)Nc2ccc(O)c(C(=O)O)c2)o1 | inconclusive: 89.1 µM [inhibitor, single point] | 
5 | Oc1ccc(/C=N/N(Cc2ccccc2)c2ccccc2)c(O)c1O | active: 6.31 µM | 
6 | CC(C)(C)c1ccc(OCc2ccc(C(=O)N3CCOCC3)o2)cc1 | inconclusive: 22.4 µM [inhibitor, partial curve, poor fit] | 
7 | CCC(=O)c1ccccc1OCC(=O)Nc1c(C)cccc1C | inactive | 
8 | Cc1c(C)c2ccc(OCC(=O)Nc3cccnc3)c(C)c2oc1=O | inconclusive: 0.141 µM [inhibitor, full curve, poor fit] | 
9 | Cc1ccccc1-c1nn2c(=O)cc(CN3CCN(C(=O)c4ccc(C(C)(C)C)cc4)CC3)nc2s1 | inconclusive: 7.08 µM [inhibitor, full curve, poor fit] | 
10 | COc1cc(C(c2c(C(=O)O)[nH]c3ccccc23)c2c(C(=O)O)[nH]c3ccccc23)ccc1OCc1ccccc1 | active: 44.7 µM | 
11 | O=C(CSc1ncccn1)N/N=C/c1cccc([N+](=O)[O-])c1 | inconclusive: 79.4 µM [inhibitor, single point] | 
12 | COc1ccc(CCN(CC(=O)NC(C)(C)C)C(=O)Cn2nnc(-c3ccc(C)o3)n2)cc1OC | inconclusive: 15.8 µM [inhibitor, single point] | 
13 | COc1ccc(OC)c(NC(=O)Cc2coc3ccc4ccccc4c23)c1 | inconclusive: 8.91 µM [inhibitor, full curve, poor fit] | 
14 | O=C(Nc1ccccc1)c1ccc(-c2ccccc2C(F)(F)F)o1 | inconclusive: 79.4 µM [inhibitor, single point] | 
15 | Cc1c(Cl)cccc1NC(=O)CN1C(=O)COc2ccc(S(=O)(=O)Nc3ccccc3)cc21 | inactive | 
16 | COCCNC(=O)CSc1nnc(NC(=O)C2CC(=O)N(c3ccccc3OC)C2)s1 (stereo not given) | inconclusive: 14.1 µM [inhibitor, partial curve, poor fit] | 
17 | COc1ccc(C(=O)NC(=S)NNC(=O)CNC(=O)C2CCCCC2)cc1 | inconclusive: 89.1 µM [inhibitor, single point] | 
18 | Cc1ccc(/C=C/C(=O)Nc2ccc(S(=O)(=O)Nc3onc(C)c3C)cc2)cc1 | inconclusive: 4.47 µM [inhibitor, full curve] | 
19 | Cn1c(=O)c(C(=O)COC(=O)c2cc(-c3ccco3)nc3ccccc23)c(N)n(CC2CC2)c1=O | active: 10 µM | 
20 | COc1ccc(CN(C)CC(=O)Nc2sc3c(c2C#N)CCC3)c(OC)c1 | active: 20 µM | 
21 | Fc1ccc2c(c1)/C(=N/Nc1ccccn1)CCS2 | inactive | 
22 | O=C(CCN1C(=O)/C(=C/c2ccc(F)cc2)SC1=S)NC1CCS(=O)(=O)C1 (stereo not given) | inconclusive: 35.5 µM [inhibitor, single point] | 
23 | Nc1c(C(=O)NC2CC2)sc2nc3c(c(-c4ccco4)c12)CC/C3=C/c1ccco1 | active: 0.631 µM | 
24 | O=C1C=C(N(CCO)Cc2ccccc2)c2ccccc2C1=O | inactive | 

Whole records from above:
`O=C(CCN1C(=O)/C(=C/c2ccc(F)cc2)SC1=S)NC1CCS(=O)(=O)C1` (stereo not given) is listed with Potency: inconclusive: 35.5 µM [inhibitor, single point]
`COc1cc(C(c2c(C(=O)O)[nH]c3ccccc23)c2c(C(=O)O)[nH]c3ccccc23)ccc1OCc1ccccc1` is listed with Potency: active: 44.7 µM

Further structures.

Row | Compound | Potency | activity change, negative = inhibition
25 | CCN1CCCC1CNc1ncnc2c1[nH]c1ccc(F)cc12 (stereo not given) | inconclusive: 56.2 µM [inhibitor, partial curve] | 
26 | CCc1cc(=O)oc2c(CN3CCN(C)CC3)c(O)c(Cl)cc12 | inactive | 
27 | CCN(CCCNC(=O)c1cc2cc3cc(C)ccc3nc2s1)c1cccc(C)c1 | inactive | 
28 | O=C(OCc1ccccc1Cl)c1ccc(-c2nnn(Cc3ccccc3)n2)cc1 | inactive | 
29 | O=S(=O)(Nc1nc2ccccc2nc1NCc1ccco1)c1ccccc1 | inconclusive: 89.1 µM [inhibitor, single point] | 
30 | COc1ccc(C2=NOC3(CC(=O)N(c4ccc(F)cc4)C3=O)C2)c(OC)c1 (stereo not given) | inactive | 
31 | Cc1ccccc1C(=O)N/N=C/c1ccc([N+](=O)[O-])s1 | inactive | 
32 | O=C(COC(=O)/C=C/c1ccco1)Nc1ncc(Cl)cc1Cl | inconclusive: 50.1 µM [inhibitor, partial curve] | 
33 | O=C(CN1CCCCCC1)Nc1cccc2c1OCO2 | inconclusive: 6.31 µM [inhibitor, full curve, poor fit] | 
34 | COc1ccc(CC(=O)NCc2ccc(-n3cccc3)cc2)cc1OC | inactive | 
35 | CC(Sc1oc(-c2ccco2)nc1S(=O)(=O)c1ccc(Br)cc1)c1ccccc1 (stereo not given) | inconclusive: 44.7 µM [inhibitor, partial curve] | 
36 | CCOc1ccccc1NC(=O)c1cccc(NC(=O)C2CCCC2)c1 | inconclusive: 15.8 µM [inhibitor, single point] | 
37 | CCOc1ccc(OCCn2c(=S)[nH]c3c(N)ncnc32)cc1 |  | inconclusive: -31.7% [inhibitor]
38 | Cc1nnc(-c2ccco2)c2cn(-c3cccc(Br)c3)nc12 | inconclusive: 35.5 µM [inhibitor, full curve] | 
39 | O=C(COC(=O)c1ccc(NS(=O)(=O)c2cccs2)cc1)NCc1ccco1 |  | inconclusive: -105% [inhibitor]
40 | COc1ccc(/C=N/NC(N)=S)cc1OC(=O)c1cccc2ccccc12 | inactive | 
41 | Cc1ccc(-c2cc(C(=O)N3CCN(c4ccc(F)cc4)CC3)c3ccccc3n2)o1 | active: 28.2 µM | 
42 | CCOC(=O)c1ccc2c(c1)N(Cc1cccc([N+](=O)[O-])c1)C(=O)c1ccccc1S2 | inconclusive: 0.141 µM [inhibitor, full curve, poor fit] | 
43 | O=C1CCCC(O)=C1N=Nc1ccc2ncsc2c1 | active: 35.5 µM | 
44 | CCOc1cc(C2NC(=S)NC(C)=C2C(=O)Nc2ccccc2)ccc1O (stereo not given) | inactive | 
45 | Cc1cc(C)n2nc(SCCOc3ccccc3F)nc2n1 | inconclusive: 44.7 µM [inhibitor, partial curve, poor fit] | 
46 | CC(C)c1cc(C(=O)N/N=C/C(Br)=C/c2ccccc2)n[nH]1 | inactive | 
47 | COc1cc(/C=N/NC(=O)c2cccc(NC(=O)c3ccccc3)c2)ccc1O | inconclusive: 56.2 µM [inhibitor, partial curve, poor fit] | 
48 | Cn1c(=O)n(-c2ccc(Cl)cc2)c(=O)c2c3c(sc21)COC(C)(C)C3 | inconclusive: 39.8 µM [inhibitor, single point] | 

Row | Compound | Potency | activity change, negative = inhibition
49 | COC(=O)c1ccc(-n2nc(C(F)(F)F)c3c2-c2ccoc2CC3)cc1 | inconclusive: 79.4 µM [inhibitor, single point] | 
50 | CC(=O)Cn1nnc2sc(-c3ccccc3)cc2c1=O | inconclusive: 25.1 µM [inhibitor, full curve] and inconclusive: 15.8 µM [inhibitor, partial curve] | 
51 | COC(=O)c1ccc(CSc2nc3scc(-c4cccs4)c3c(=O)[nH]2)o1 | active: 20 µM | 
52 | CN1C(=O)c2ccccc2C(C(=O)O)C1c1cn(C)c2ccccc12 (stereo not given) | inconclusive: 22.4 µM [inhibitor, single point] | 
53 | CC12CCC(C(=O)Nc3cccnc3)(CC1=O)C2(C)C (stereo not given) | inconclusive: 89.1 µM [inhibitor, single point] | 
54 | CC(=O)Nc1cccc(/C(C)=N/NC(=O)c2ccc3c(c2)OCO3)c1 | inconclusive: 28.2 µM [inhibitor, partial curve] | 
55 | O=C(c1cc2ccccc2o1)N1CCCC1 | inconclusive: 0.891 µM [inhibitor, full curve] | 
56 | Cc1ccccc1NC(=O)c1sc2nc(-c3ccncc3)ccc2c1N | inconclusive: 15.8 µM [inhibitor, single point] | 
57 | O=C(CCn1cccc1)N1CCc2ccccc21 | inconclusive: 31.6 µM [inhibitor, partial curve] | 
58 | O=C(CC1C(=O)N(c2ccc(F)cc2)C(=O)N1Cc1cccnc1)Nc1ccc(F)cc1 (stereo not given) | inactive | 
59 | O=C(NCc1cc([N+](=O)[O-])ccc1O)c1cccnc1Sc1ccccc1 | inactive | 
60 | Cc1ccc(C(=O)Nc2ccc(F)cc2F)o1 | inconclusive: 89.1 µM [inhibitor, single point] | 
61 | COc1ccc(CCN2CC(C(=O)NCCc3ccc(C)cc3)CC2=O)cc1OC (stereo not given) | inconclusive: 22.4 µM [inhibitor, full curve] and inconclusive: 31.6 µM [inhibitor, full curve] | 
62 | COc1ccc(C(=O)O/N=C(\N)c2ccccn2)cc1 | inactive | 
63 | COc1cccc(-c2csc(NNC(=O)c3cccs3)n2)c1 | inconclusive: 3.16 µM [inhibitor, full curve, poor fit] | 
64 | COc1cc(/C=C2\SC(=Nc3ccc(O)cc3)NC2=O)cc(OC)c1OC | inactive | 
65 | CC(C)/C=C1\CC/C(=C\c2ccc(N(C)C)cc2)C1=O | inactive | 
66 | CCOC(=O)c1ccc(N2C(=O)c3[nH]nc(-c4ccccc4)c3C2c2ccc(CC)cc2)cc1 (stereo not given) | inconclusive: 0.316 µM [inhibitor, full curve] | 
67 | CC1CCCCC1N=CC1=C(O)CC(C)(C)CC1=O (stereo not given) | inconclusive: 89.1 µM [inhibitor, single point] | 
68 | CC(C)c1onc(C(=O)Nc2cccc(Cl)c2)c1[N+](=O)[O-] | inconclusive: 89.1 µM [inhibitor, single point] | 
69 | O=C(Cn1c(=O)n(Cc2nc(-c3ccccc3)no2)c(=O)c2ccccc21)Nc1cccc(C(F)(F)F)c1 | inactive | 
70 | O=C(Nc1ccc(C(=O)O)cc1)/C(=C\c1ccco1)NC(=O)c1ccc(Br)o1 | inconclusive: 56.2 µM [inhibitor, partial curve, poor fit] | 

Looked up above:
Value for `CC1CCCCC1N=CC1=C(O)CC(C)(C)CC1=O` (stereo not given) under Potency: inconclusive: 89.1 µM [inhibitor, single point]
Value for `O=C(CC1C(=O)N(c2ccc(F)cc2)C(=O)N1Cc1cccnc1)Nc1ccc(F)cc1` (stereo not given) under Potency: inactive
